Measured values: PMC6615598 (PLoS Biology, 2019)

Experiment: general procedure: Fmoc solid-phase peptide synthesis; 2-chlorotrityl chloride (CTC) resin (100–200 mesh; 1.2 mmol/g, 1 g); HCTU, HOBt, DIPEA
Conditions: whole synthesis, TFA salts

Substance | isolated yield [%]
PEPTIDE1{F.F.W.R.R.V.K}$PEPTIDE1,PEPTIDE1,1:R1-7:R2$$$V2.0 | 20
PEPTIDE1{[A1Nal].F.[A1Nal].R.R.V.K}$PEPTIDE1,PEPTIDE1,7:R2-1:R1$$$V2.0 | 17

Strings that start with PEPTIDE1 are HELM notation: dots part the residues, brackets hold end groups and non-standard residues.
